# Measured values: the supplement of paper PMC6411743
# By UniProt entry, the sequences of proteins in these tests, tags left out. Where a name states a change or a piece, a line headed by the entry shows the natural chain unless it says otherwise.
# UniProt P98179: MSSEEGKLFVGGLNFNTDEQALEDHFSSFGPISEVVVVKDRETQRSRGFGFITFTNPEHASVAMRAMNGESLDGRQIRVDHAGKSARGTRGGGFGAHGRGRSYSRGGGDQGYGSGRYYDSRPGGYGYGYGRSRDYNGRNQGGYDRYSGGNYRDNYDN
# UniProt P56182: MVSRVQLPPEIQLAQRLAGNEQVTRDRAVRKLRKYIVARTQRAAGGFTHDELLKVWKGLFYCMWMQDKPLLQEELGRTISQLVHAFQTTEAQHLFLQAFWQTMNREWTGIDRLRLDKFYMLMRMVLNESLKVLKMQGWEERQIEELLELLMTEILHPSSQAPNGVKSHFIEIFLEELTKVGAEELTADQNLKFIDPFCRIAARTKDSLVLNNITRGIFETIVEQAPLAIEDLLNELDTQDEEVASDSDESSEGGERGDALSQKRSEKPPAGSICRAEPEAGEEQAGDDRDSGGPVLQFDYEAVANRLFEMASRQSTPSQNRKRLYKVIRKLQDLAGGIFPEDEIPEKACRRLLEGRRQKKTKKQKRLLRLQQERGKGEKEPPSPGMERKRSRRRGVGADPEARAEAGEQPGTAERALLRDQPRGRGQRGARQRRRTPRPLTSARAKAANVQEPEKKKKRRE
# UniProt P82909: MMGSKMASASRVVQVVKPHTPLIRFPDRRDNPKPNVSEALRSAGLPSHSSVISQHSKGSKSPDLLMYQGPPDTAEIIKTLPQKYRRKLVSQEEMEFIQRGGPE
# UniProt P60468, whole entry: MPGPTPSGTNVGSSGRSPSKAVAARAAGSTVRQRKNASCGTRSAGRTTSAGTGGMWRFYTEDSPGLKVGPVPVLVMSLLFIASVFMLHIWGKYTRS
# UniProt P54687: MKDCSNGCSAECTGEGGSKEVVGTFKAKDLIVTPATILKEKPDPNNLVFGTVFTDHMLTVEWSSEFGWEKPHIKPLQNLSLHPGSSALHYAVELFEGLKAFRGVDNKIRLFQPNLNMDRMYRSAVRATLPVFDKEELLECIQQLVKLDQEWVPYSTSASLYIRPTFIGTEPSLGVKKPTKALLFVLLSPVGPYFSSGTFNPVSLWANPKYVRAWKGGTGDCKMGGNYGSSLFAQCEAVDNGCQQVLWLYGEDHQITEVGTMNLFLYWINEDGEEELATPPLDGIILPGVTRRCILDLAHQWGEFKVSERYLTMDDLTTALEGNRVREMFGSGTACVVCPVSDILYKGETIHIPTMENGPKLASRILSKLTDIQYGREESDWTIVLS
# UniProt P54278: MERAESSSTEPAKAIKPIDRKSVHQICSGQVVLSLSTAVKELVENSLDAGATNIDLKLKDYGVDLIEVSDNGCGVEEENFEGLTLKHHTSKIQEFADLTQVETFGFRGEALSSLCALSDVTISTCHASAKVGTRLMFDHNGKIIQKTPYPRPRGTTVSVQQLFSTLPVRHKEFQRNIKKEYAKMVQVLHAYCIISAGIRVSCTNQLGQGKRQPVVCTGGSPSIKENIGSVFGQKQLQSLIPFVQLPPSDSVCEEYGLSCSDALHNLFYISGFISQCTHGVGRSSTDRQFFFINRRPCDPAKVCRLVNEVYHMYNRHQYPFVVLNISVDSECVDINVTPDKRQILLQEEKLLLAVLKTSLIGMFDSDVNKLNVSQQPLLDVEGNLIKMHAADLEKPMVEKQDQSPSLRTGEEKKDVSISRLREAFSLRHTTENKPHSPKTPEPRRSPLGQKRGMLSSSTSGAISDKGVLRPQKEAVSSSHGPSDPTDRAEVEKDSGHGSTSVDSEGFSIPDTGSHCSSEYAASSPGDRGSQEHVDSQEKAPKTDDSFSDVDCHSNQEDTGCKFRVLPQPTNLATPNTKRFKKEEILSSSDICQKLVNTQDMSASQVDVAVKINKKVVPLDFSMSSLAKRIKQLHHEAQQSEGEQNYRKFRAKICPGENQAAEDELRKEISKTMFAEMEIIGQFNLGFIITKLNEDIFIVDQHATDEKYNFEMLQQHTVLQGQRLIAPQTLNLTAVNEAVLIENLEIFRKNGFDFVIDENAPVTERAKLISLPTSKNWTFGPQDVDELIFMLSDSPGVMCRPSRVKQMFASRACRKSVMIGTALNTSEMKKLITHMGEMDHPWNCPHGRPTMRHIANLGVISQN
# UniProt P52948: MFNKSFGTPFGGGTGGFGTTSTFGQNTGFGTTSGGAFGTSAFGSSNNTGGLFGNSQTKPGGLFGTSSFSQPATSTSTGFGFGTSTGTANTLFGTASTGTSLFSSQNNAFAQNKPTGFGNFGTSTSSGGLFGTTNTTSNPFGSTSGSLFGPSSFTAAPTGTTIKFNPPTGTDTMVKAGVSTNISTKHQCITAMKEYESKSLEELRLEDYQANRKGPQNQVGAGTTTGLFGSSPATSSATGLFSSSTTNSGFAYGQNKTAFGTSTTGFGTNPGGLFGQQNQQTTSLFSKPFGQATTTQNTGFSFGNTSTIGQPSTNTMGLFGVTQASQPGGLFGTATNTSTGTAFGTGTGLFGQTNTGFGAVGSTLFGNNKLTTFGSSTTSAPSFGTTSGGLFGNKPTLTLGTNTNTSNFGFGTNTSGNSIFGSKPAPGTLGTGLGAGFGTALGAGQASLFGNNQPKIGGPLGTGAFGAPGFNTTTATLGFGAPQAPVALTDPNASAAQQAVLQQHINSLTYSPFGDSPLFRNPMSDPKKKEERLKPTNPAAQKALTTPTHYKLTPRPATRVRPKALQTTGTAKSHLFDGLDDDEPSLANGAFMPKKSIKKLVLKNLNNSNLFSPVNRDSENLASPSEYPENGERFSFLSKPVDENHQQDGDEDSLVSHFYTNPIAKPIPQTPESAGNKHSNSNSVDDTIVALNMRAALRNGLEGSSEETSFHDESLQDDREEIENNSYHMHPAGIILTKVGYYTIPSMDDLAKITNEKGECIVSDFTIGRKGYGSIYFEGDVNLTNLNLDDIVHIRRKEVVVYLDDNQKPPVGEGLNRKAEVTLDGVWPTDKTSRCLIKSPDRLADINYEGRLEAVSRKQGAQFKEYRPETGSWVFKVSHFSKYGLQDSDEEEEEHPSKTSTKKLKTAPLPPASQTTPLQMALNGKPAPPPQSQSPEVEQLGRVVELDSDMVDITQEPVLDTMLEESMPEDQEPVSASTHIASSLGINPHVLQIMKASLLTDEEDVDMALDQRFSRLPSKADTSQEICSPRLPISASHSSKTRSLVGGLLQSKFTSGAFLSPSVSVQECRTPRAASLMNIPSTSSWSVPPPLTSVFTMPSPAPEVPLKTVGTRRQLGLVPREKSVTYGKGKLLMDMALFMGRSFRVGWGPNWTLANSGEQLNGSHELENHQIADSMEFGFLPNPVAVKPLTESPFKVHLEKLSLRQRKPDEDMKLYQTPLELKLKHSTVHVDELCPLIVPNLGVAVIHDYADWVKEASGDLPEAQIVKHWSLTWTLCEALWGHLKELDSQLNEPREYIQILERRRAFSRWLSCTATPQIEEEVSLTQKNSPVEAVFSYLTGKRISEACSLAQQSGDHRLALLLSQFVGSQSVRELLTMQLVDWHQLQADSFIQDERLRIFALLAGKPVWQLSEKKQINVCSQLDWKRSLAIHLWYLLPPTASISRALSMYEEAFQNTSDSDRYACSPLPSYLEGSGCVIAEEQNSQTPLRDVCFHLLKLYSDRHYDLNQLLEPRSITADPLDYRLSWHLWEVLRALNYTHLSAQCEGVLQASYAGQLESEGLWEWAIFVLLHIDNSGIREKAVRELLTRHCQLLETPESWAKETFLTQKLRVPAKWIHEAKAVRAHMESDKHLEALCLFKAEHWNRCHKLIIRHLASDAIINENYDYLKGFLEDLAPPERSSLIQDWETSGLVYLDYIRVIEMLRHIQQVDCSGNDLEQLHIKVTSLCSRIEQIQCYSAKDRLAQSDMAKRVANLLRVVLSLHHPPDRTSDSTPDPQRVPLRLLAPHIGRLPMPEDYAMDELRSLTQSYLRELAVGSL
# UniProt P60602: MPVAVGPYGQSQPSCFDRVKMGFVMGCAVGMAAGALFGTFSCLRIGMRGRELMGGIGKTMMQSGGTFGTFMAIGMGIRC
# UniProt P62995: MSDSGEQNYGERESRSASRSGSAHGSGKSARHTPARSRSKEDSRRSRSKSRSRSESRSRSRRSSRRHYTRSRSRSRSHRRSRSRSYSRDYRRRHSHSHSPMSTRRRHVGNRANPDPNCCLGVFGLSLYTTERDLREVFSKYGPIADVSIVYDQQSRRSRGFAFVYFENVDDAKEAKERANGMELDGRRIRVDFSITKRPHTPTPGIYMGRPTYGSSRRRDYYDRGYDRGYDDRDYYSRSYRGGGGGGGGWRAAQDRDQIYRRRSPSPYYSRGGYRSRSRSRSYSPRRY
# UniProt P98095: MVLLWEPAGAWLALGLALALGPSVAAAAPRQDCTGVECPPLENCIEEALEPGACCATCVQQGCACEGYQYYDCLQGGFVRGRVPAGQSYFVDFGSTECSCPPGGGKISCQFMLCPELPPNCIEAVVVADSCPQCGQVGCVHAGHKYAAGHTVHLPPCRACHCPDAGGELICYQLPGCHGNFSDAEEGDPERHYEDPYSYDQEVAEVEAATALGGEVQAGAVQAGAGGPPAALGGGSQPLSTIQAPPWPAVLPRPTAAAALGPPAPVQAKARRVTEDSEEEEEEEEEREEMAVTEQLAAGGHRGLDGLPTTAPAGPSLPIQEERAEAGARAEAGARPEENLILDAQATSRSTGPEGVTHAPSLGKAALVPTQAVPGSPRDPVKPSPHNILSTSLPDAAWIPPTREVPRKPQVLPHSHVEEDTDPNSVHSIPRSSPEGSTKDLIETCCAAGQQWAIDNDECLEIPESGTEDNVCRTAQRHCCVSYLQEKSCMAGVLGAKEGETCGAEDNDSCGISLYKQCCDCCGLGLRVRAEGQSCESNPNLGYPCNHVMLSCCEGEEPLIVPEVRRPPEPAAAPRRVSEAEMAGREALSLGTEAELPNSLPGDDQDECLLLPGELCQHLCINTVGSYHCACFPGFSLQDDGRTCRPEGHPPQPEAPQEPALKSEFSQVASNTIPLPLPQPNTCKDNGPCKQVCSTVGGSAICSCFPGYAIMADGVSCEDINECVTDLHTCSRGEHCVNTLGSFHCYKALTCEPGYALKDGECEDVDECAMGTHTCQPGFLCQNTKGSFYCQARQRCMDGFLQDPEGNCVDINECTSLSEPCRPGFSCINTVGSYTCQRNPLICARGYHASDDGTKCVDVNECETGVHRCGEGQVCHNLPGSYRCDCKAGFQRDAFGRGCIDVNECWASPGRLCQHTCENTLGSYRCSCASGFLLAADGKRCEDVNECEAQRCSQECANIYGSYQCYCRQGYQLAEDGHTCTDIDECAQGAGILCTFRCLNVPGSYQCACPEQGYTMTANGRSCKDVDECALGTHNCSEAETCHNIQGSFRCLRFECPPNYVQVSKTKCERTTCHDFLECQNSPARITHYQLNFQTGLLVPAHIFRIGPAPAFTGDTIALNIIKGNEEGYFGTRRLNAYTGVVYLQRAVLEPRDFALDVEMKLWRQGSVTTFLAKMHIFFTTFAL
# UniProt P53367: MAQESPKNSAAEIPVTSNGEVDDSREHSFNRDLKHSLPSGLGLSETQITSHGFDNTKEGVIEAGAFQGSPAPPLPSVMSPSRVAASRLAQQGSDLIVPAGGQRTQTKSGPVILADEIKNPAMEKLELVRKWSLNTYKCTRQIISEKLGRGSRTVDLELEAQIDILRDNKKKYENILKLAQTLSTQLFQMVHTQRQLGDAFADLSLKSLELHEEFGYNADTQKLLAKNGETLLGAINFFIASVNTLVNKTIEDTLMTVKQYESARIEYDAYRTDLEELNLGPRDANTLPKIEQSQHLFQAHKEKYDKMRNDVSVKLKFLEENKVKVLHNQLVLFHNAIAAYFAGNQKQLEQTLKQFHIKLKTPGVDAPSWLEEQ
# UniProt P54136: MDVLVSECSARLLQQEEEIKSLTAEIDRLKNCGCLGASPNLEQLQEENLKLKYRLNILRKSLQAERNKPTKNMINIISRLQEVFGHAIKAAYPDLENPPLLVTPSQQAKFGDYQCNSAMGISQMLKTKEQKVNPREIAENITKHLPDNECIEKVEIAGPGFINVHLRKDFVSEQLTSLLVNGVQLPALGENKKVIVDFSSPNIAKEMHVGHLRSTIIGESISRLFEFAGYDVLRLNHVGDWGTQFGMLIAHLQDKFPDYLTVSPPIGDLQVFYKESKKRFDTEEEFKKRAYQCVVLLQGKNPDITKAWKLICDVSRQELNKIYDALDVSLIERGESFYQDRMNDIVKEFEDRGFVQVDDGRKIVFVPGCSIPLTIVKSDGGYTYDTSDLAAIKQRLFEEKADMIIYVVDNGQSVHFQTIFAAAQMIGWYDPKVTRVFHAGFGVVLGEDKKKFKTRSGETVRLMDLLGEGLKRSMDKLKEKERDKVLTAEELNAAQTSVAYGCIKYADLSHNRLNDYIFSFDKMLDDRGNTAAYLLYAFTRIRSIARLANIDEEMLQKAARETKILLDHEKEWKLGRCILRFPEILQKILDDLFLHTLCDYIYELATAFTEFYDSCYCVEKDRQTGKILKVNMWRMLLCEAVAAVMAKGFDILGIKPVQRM
# UniProt P62314, whole entry: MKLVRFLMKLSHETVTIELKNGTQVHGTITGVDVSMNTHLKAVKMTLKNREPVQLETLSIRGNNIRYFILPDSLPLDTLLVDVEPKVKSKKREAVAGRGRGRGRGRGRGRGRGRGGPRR
# ± gives the standard deviation of the averaged measurements. Only a part is listed here, and it is no random draw.
# Compound: Nc1ncnc2c1ncn2[C@@H]1O[C@H](COP(=O)(O)OP(=O)(O)OP(=O)(O)O)[C@@H](O)[C@H]1O [adenosine triphosphate]
# Assay: NP40-soluble protein abundance relative to vehicle (solubility fold change) (ratio); higher = more soluble protein in presence of ATP
# How it was run: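 Jurkat crude lysate (Dounce-homogenised) was treated with eight concentrations from 0.1 to 10 mM for 10 min at room temperature, then 3 min at 37 °C. It was solubilised with 0.8% NP40 and benzonase (60 min, 4 °C) and ultracentrifuged, and the supernatant was TMT-labelled for LC-MS/MS. Intensities were vsn-normalised, and the value is the fold change against the NP40-processed vehicle per replicate, from three independent experiments.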
Target,NP40-soluble protein abundance (concentration: 1mM),NP40-soluble protein abundance (concentration: 2mM),NP40-soluble protein abundance (concentration: 4mM),NP40-soluble protein abundance (concentration: 6mM),NP40-soluble protein abundance (concentration: 8mM),NP40-soluble protein abundance (concentration: 10mM)
RBM3 (UniProt P98179),0.933 ± 0.099,1.02 ± 0.053,1.03 ± 0.064,1.11 ± 0.064,1.08 ± 0.045,1.13 ± 0.077
SUB1 (UniProt P53999),0.843 ± 0.14,0.851 ± 0.1,0.744 ± 0.17,0.95 ± 0.095,0.876 ± 0.015,0.778 ± 0.2
UniProt P62753,0.878 ± 0.07,0.805 ± 0.13,0.746 ± 0.14,0.727 ± 0.18,0.659 ± 0.15,0.745 ± 0.14
UniProt P98155 and related entries,0.95 ± 0.041,0.978 ± 0.019,0.954 ± 0.039,0.977 ± 0.012,0.964 ± 0.026,0.9518 ± 0.0075
USP14 (UniProt P54578),0.985 ± 0.038,0.985 ± 0.016,0.942 ± 0.026,0.988 ± 0.032,0.95 ± 0.025,0.952 ± 0.031
RRP1 (UniProt P56182),1.07 ± 0.073,1.1 ± 0.028,1.09 ± 0.054,1.11 ± 0.062,1.07 ± 0.0041,1.09 ± 0.066
UniProt Q00325 and related entries,0.917 ± 0.12,0.913 ± 0.072,0.883 ± 0.016,0.831 ± 0.1,0.931 ± 0.03,0.987 ± 0.042
MRPS36 (UniProt P82909),0.996 ± 0.16,0.963 ± 0.19,1.02 ± 0.099,1.1 ± 0.18,0.936 ± 0.093,0.935 ± 0.16
UniProt P55957 and related entries,1.02 ± 0.12,0.97 ± 0.025,0.995 ± 0.047,1 ± 0.12,0.99 ± 0.044,0.865 ± 0.082
SEC61B (UniProt P60468),0.855 ± 0.17,0.857 ± 0.15,0.87 ± 0.16,0.837 ± 0.14,0.883 ± 0.089,0.789 ± 0.19
UniProt P54687 and related entries,0.998 ± 0.028,0.997 ± 0.027,0.979 ± 0.076,0.952 ± 0.067,0.982 ± 0.061,0.956 ± 0.061
UniProt P53365 and related entries,0.946 ± 0.042,0.979 ± 0.044,0.9428 ± 0.0078,0.933 ± 0.029,0.926 ± 0.043,0.923 ± 0.061
UniProt P82970,0.891 ± 0.088,0.878 ± 0.045,0.843 ± 0.061,0.921 ± 0.046,0.867 ± 0.02,0.842 ± 0.077
UniProt P83916,1.04 ± 0.099,1 ± 0.043,1.01 ± 0.064,1.01 ± 0.042,1.01 ± 0.021,0.972 ± 0.017
UniProt P55884 and related entries,1 ± 0.062,1.05 ± 0.053,1.14 ± 0.033,1.18 ± 0.025,1.42 ± 0.064,1.56 ± 0.057
PMS2 (UniProt P54278),1.18 ± 0.04,1.15 ± 0.035,1.21 ± 0.047,1.15 ± 0.011,1.17 ± 0.045,1.17 ± 0.042
UniProt P62306,1.02 ± 0.055,1.12 ± 0.045,1.17 ± 0.06,1.33 ± 0.07,1.3 ± 0.076,1.3 ± 0.038
UniProt P52948 and related entries,1.001 ± 0.0034,1.022 ± 0.0074,1.04 ± 0.011,1.11 ± 0.021,1.11 ± 0.017,1.17 ± 0.033
ROMO1 (UniProt P60602),0.833 ± 0.05,1.01 ± 0.1,0.937 ± 0.097,0.83 ± 0.08,0.873 ± 0.17,1.01 ± 0.04
UniProt P62888,0.957 ± 0.093,0.912 ± 0.11,0.906 ± 0.18,0.863 ± 0.14,0.814 ± 0.17,0.984 ± 0.14
UniProt P62995 and related entries,1.24 ± 0.086,1.32 ± 0.17,1.45 ± 0.23,1.59 ± 0.34,1.55 ± 0.2,1.68 ± 0.26
UniProt P98095 and related entries,0.941 ± 0.014,0.975 ± 0.026,0.973 ± 0.025,1 ± 0.038,0.929 ± 0.05,0.978 ± 0.038
UniProt P61927,0.975 ± 0.1,0.95 ± 0.12,0.983 ± 0.17,1.07 ± 0.3,0.724 ± 0.028,0.933 ± 0.14
UniProt P53367 and related entries,0.965 ± 0.029,0.974 ± 0.016,0.962 ± 0.018,0.952 ± 0.022,0.959 ± 0.038,0.916 ± 0.027
EIF6 (UniProt P56537),1.01 ± 0.084,1.06 ± 0.083,1.04 ± 0.042,0.976 ± 0.1,0.99 ± 0.052,0.968 ± 0.049
UniProt P54136 and related entries,1.05 ± 0.086,0.978 ± 0.038,0.957 ± 0.033,0.94 ± 0.054,1.01 ± 0.037,0.96 ± 0.046
UniProt P56181 and related entries,0.984 ± 0.039,0.945 ± 0.031,0.931 ± 0.029,0.967 ± 0.09,0.93 ± 0.036,0.926 ± 0.025
UniProt P62314,1.02 ± 0.14,1.01 ± 0.073,1.07 ± 0.05,1.03 ± 0.25,1.12 ± 0.05,1.23 ± 0.11
UniProt P56937 and related entries,0.979 ± 0.081,1.01 ± 0.094,0.986 ± 0.069,0.954 ± 0.13,0.985 ± 0.049,1 ± 0.082
UniProt Q00613 and related entries,0.953 ± 0.049,0.944 ± 0.031,0.944 ± 0.013,0.979 ± 0.022,0.961 ± 0.025,0.907 ± 0.039

# No new results follow: entries from further up.
Target,NP40-soluble protein abundance (concentration: 1mM),NP40-soluble protein abundance (concentration: 2mM),NP40-soluble protein abundance (concentration: 4mM),NP40-soluble protein abundance (concentration: 6mM),NP40-soluble protein abundance (concentration: 8mM),NP40-soluble protein abundance (concentration: 10mM)
UniProt P55884 and related entries,1 ± 0.062,1.05 ± 0.053,1.14 ± 0.033,1.18 ± 0.025,1.42 ± 0.064,1.56 ± 0.057
PMS2 (UniProt P54278),1.18 ± 0.04,1.15 ± 0.035,1.21 ± 0.047,1.15 ± 0.011,1.17 ± 0.045,1.17 ± 0.042
UniProt P62306,1.02 ± 0.055,1.12 ± 0.045,1.17 ± 0.06,1.33 ± 0.07,1.3 ± 0.076,1.3 ± 0.038
UniProt P52948 and related entries,1.001 ± 0.0034,1.022 ± 0.0074,1.04 ± 0.011,1.11 ± 0.021,1.11 ± 0.017,1.17 ± 0.033
ROMO1 (UniProt P60602),0.833 ± 0.05,1.01 ± 0.1,0.937 ± 0.097,0.83 ± 0.08,0.873 ± 0.17,1.01 ± 0.04
UniProt P62888,0.957 ± 0.093,0.912 ± 0.11,0.906 ± 0.18,0.863 ± 0.14,0.814 ± 0.17,0.984 ± 0.14
UniProt P62995 and related entries,1.24 ± 0.086,1.32 ± 0.17,1.45 ± 0.23,1.59 ± 0.34,1.55 ± 0.2,1.68 ± 0.26
UniProt P98095 and related entries,0.941 ± 0.014,0.975 ± 0.026,0.973 ± 0.025,1 ± 0.038,0.929 ± 0.05,0.978 ± 0.038
UniProt P61927,0.975 ± 0.1,0.95 ± 0.12,0.983 ± 0.17,1.07 ± 0.3,0.724 ± 0.028,0.933 ± 0.14
